Source: US6946130 (GlaxoSmithKline, dated 2005)
No constants are given. Whether binding was seen depends on the method and setting. Some results given as binding are weak or reduced against the parent protein; the word gives no strength. Sequences can lack the tags named with a protein.

Chains of the proteins cited; added tags and fusions are not shown. Residues count along the entry.
UniProt P05113, residues 20-134: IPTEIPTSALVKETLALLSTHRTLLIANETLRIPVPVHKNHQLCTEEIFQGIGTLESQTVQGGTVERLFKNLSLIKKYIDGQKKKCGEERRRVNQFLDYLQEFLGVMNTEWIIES

Target: human interleukin 5 (recombinant human IL-5, expressed in Drosophila Schneider 2 cells) (human) (UniProt P05113)
Test: colony lift assay with 125I-IL-5

B1: recombinant Fab containing the 2B6 heavy and light chains (Fd fused to hexa-His) (Fab)
heavy (part 1 of 2): QVQLKESGPGLVAPSQSLSITCTVSGFSLTSYSVHWVRQPPGKGLEWLGVIWASGGTDYNSALMSRLSISKDNSKSQVFLKLNSLQTDDTAMYYCARDPPSSLLRLDYWGQGTTLTVSS
heavy (part 2 of 2): HHHHHH
light: DIVMTQSPSSLSVSAGEKVTMSCKSSQSLLNSGNQKNYLAWYQQKPGQPPKLLIYGASTRESGVPDRFTGSGSGTDFTLSISSVQAEDLAVYYCQNVHSFPFTFGSGTELEIK
notes: Expressed in E. coli from pMKFabGene3H after removal of gene III; also called Fab fragment from 2B6; 2B6 Fab; not shown: murine CH1 (rest of the 2B6 Fd); murine kappa constant region
Which binding does the source give for B1 here?
The binding was “binds”.
